Consider three substances from PMC10709142.

Chains of the proteins cited; added tags and fusions are not shown.
UniProt O75444: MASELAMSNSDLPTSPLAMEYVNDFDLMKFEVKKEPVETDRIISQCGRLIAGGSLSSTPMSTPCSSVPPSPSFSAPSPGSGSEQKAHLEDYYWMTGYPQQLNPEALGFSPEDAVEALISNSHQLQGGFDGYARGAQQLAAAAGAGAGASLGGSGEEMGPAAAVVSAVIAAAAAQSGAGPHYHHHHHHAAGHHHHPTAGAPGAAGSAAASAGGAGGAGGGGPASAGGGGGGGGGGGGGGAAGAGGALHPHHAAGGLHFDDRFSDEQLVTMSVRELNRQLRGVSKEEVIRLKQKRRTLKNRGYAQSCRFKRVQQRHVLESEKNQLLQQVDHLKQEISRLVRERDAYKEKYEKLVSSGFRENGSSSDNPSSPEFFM
UniProt P03372: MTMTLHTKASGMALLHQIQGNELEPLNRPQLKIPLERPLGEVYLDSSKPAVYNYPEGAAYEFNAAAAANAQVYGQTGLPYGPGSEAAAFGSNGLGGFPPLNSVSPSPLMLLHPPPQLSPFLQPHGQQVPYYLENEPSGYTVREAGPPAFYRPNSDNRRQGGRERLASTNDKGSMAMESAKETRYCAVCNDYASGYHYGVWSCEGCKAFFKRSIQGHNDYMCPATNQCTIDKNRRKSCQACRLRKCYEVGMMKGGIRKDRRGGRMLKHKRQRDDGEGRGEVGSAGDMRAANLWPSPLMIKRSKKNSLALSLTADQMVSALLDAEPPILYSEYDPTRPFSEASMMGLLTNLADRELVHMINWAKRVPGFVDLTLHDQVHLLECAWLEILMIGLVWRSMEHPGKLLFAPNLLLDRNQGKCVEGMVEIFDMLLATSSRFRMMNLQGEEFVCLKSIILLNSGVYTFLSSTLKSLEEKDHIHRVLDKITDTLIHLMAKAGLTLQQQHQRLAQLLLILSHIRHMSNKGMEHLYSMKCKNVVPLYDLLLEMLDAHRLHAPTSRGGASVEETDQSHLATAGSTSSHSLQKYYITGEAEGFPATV
UniProt O75376: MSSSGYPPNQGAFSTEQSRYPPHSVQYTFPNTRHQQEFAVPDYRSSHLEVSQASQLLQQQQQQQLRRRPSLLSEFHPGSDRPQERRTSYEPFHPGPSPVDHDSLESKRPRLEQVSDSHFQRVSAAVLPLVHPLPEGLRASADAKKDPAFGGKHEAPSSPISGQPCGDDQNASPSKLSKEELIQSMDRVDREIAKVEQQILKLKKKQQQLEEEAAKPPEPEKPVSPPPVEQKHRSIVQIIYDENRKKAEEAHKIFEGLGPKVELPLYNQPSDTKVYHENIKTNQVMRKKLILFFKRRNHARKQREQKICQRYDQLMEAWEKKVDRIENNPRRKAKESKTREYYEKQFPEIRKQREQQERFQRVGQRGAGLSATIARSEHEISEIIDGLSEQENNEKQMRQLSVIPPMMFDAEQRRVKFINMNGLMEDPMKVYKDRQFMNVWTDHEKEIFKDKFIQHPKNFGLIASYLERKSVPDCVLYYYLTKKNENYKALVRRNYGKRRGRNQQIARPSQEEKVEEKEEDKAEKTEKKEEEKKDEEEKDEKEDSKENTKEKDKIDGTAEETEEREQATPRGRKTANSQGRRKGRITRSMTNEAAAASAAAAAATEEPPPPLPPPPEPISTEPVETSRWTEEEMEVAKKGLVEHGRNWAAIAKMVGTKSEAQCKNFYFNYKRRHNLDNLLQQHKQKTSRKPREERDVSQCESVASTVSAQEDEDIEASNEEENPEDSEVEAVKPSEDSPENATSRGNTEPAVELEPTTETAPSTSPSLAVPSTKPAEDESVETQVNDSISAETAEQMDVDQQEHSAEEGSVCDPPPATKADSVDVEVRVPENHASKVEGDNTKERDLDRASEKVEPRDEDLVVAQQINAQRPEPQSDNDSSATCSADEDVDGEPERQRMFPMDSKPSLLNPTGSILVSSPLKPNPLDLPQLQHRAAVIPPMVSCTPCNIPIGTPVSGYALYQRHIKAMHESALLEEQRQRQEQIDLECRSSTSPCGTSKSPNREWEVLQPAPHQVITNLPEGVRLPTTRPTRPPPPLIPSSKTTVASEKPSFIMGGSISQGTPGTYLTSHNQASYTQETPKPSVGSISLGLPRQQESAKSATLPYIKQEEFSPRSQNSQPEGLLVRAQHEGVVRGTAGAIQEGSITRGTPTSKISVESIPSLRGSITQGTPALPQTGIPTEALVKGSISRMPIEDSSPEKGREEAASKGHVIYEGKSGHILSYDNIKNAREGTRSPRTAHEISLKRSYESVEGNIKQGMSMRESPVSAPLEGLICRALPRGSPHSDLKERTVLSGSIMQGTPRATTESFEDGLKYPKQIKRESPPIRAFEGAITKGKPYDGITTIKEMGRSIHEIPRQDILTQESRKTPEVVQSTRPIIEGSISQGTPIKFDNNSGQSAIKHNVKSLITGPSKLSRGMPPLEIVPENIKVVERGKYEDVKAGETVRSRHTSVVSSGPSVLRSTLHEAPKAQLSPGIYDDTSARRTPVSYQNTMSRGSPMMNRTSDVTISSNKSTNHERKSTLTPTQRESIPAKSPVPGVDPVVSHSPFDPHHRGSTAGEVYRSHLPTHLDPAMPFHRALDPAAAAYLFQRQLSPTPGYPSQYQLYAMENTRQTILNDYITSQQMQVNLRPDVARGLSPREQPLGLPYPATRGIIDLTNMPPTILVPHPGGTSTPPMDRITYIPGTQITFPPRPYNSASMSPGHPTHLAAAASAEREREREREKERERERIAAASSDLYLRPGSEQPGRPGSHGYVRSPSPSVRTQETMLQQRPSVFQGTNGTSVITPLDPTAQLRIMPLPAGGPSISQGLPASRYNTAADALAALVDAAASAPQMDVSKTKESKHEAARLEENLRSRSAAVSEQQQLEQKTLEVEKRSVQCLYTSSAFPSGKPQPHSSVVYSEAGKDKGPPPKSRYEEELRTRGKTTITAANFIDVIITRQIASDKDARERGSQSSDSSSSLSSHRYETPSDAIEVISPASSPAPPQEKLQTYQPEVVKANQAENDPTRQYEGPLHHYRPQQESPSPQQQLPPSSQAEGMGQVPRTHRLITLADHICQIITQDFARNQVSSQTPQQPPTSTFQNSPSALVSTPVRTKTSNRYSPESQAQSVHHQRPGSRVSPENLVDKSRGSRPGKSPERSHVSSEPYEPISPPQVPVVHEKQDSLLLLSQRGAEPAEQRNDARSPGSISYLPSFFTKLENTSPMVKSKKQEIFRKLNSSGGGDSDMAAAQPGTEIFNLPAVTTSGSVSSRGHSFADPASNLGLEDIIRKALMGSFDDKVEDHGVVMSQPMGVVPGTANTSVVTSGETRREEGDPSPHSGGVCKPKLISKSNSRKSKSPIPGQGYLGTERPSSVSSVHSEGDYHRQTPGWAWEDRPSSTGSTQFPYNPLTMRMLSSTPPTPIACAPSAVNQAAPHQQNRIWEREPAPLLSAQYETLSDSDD
UniProt Q9Y6Q9: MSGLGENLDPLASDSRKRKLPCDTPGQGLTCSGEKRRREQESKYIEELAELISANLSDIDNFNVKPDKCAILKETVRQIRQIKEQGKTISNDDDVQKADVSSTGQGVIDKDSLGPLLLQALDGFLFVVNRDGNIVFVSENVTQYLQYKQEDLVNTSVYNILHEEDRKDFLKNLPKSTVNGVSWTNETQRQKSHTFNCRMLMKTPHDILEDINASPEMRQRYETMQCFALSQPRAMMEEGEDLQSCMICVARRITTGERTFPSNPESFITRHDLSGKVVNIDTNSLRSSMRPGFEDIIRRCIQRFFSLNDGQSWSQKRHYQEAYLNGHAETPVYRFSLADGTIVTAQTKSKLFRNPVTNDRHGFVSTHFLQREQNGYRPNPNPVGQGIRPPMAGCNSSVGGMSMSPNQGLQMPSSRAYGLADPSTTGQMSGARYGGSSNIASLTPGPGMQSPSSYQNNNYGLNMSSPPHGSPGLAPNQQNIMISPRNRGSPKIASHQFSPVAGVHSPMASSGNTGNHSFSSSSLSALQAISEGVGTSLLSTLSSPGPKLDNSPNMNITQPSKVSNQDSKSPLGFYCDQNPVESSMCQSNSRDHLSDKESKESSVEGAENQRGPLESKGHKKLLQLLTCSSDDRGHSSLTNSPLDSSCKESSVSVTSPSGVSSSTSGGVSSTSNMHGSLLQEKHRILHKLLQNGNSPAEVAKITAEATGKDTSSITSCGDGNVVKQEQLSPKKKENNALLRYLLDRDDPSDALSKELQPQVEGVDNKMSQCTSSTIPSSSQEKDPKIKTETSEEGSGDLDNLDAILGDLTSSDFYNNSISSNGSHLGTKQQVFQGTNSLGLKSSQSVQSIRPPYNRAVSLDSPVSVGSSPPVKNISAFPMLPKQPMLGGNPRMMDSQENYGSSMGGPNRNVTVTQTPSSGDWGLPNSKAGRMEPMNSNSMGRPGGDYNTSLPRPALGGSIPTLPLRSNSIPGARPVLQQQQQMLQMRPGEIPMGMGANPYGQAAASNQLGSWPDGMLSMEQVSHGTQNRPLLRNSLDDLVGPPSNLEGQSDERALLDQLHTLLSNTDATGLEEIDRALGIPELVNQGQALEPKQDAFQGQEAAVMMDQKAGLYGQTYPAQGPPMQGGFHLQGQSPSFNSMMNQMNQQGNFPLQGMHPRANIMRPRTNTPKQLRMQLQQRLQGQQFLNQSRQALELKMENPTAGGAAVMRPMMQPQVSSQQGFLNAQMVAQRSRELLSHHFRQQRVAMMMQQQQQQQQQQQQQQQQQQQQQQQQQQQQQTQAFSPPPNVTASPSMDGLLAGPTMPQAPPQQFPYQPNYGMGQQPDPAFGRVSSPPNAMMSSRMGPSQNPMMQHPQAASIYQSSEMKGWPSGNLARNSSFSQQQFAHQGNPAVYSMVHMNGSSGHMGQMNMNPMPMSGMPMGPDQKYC

Results are given in words; binding and its absence hold for the method and conditions named. In cells and extracts the contact can be indirect. Some entries that bind do so weakly or less than the wild type.

The assay deals with HA-tagged MAF short isoform (pCMV5, N-terminal 2xHA) (UniProt O75444). Description: co-IP; MCF7 cells 48 h after transfection with pCMV5 HA-MAF (S or L) or empty plasmid; 500 µg lysate (50 mM Tris-HCl pH 7.4, 100 mM NaCl, 1% Triton X-100) on anti-HA magnetic beads overnight at 4 °C; immunoblot of endogenous partners; also after ER-PROTAC (KDM1A) and in cells with scrambled or KDM1A-targeted shRNA (ER). For orientation: A western blot detects proteins with antibodies after separation by electrophoresis.
Regarding “oestrogen receptor alpha (from UniProt P03372 1-595)”, the binding entry was “binds”. Under NCoR1 (from UniProt O75376 1-2440) stands “binds”. In the case of NCoA3 (from UniProt Q9Y6Q9 1-1424) it was “binds”.
